Screening data, single-dose tests

Chains of the proteins cited; added tags and fusions are not shown.
UniProt I6X8D2, whole entry: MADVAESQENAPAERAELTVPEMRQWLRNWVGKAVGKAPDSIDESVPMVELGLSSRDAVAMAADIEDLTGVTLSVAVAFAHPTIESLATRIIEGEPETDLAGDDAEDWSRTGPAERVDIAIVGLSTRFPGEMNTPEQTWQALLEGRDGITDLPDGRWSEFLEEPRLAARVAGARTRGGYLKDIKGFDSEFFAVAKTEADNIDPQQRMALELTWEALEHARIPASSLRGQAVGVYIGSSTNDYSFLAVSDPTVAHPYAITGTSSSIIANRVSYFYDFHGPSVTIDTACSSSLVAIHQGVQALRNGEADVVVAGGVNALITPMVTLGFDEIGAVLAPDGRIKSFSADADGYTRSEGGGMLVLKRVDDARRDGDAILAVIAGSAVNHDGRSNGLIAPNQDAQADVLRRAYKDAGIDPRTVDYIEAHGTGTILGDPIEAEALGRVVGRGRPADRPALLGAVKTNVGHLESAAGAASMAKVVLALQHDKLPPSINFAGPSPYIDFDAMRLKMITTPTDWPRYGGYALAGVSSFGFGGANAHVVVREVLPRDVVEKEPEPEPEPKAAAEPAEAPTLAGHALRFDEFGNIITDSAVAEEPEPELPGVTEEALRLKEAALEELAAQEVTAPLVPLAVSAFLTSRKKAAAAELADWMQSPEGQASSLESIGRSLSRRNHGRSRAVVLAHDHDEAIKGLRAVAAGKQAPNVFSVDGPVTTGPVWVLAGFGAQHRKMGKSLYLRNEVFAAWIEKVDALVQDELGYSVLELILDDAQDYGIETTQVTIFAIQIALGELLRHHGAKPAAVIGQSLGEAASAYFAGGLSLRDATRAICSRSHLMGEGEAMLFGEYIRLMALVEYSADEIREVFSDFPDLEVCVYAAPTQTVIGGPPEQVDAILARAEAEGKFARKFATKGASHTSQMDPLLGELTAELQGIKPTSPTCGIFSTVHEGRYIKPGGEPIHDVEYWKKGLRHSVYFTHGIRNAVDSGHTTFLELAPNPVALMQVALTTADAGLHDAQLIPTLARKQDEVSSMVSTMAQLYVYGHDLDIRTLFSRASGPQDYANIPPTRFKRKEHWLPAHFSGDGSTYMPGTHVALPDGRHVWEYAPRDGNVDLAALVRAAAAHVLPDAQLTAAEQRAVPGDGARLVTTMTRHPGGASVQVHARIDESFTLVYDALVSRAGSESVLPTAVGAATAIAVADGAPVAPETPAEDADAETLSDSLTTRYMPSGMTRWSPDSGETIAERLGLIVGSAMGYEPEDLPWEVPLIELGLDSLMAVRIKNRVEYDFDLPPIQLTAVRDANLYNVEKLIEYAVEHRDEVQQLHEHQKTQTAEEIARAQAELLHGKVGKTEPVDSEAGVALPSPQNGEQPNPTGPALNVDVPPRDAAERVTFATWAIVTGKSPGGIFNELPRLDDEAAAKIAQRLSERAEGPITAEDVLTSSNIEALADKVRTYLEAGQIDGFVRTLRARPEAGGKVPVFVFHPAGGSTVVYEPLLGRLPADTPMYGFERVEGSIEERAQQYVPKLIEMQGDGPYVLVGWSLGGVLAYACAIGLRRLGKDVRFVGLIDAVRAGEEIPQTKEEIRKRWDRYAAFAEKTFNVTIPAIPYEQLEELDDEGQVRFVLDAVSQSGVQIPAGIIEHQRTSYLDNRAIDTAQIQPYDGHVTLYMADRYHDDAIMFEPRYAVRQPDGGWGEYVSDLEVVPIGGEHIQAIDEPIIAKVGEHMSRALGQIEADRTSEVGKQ

Source: ChEMBL document CHEMBL3988442, “University of Dundee, Small-Polar-MMV Screening Library” (2021).

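Polyketide synthase Pks13, Mycobacterium tuberculosis (UniProt I6X8D2). Enzyme assay of the thioesterase domain of polyketide synthase 13; the read-out is not stated. Tested at 30 µM. The record gives no direction; the compounds picked for IC50 retests had high values, so higher reads as stronger inhibition. Size under these conditions: about 67,000 compounds, about 300 of them at 50% or above in at least one test.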

Each number is a percent effect as filed.
The record does not define 0% and 100%; most values in the screen are far below 50% and negative numbers occur (in some assays of this library far below -100).
The compounds are a random part of those screened.

Compound,percent effect
CC(C)N(Cc1ccc(C(F)(F)F)nc1)Cc1cnn(C)c1,0.6742
Cc1cnn(CC2CCCN2C(=O)c2cc(C)nc3[nH]nc(C)c23)c1 (stereo not shown),-14.55
N#Cc1cccc(Cl)c1NCCCc1nc(=O)[nH][nH]1,-34.15
Cc1nnc(CN2CCCC2c2ccc(C(C)(C)C)cc2)o1 (stereo not shown),0.6692
COc1cc(CNc2cc(N3CCCC3CO)ncn2)ccn1 (stereo not shown),-24.79
O=C(CCNC(=O)c1ccccc1)Nc1ccncc1,-18.42
O=C(CCc1ccco1)Nc1cc(C(F)(F)F)c[nH]c1=O,-14.71
Cc1ccc2oc(C(=O)N3CCCC(n4nc(C)nc4C)C3)cc2n1 (stereo not shown),-21.07
CCN1CCN(C(=O)c2cc(C(=O)OC)nn2-c2ccccc2)CC1,2.055
Cc1noc(C)c1CN1CC2(CCN(Cc3c[nH]cn3)CC2)CC1=O,-11.9
CC(=O)NCC1CCN(C(=O)c2csc(-c3ccc(C)cc3C)n2)CC1,-12.38
Cc1cc(C)c(S(N)(=O)=O)cc1C(=O)NCCN1CCCCC1,-39.84
Cn1cc(S(=O)(=O)NC(=O)C2(c3cccc(Cl)c3)CC2)cn1,-22.4
CCCN(C(=O)CN1CCn2c(nnc2C2CC2)C1)C1=CCCCC1,-15.02
Cc1cnc(CN2CCCC(c3cc(C(N)=O)[nH]n3)C2)o1 (stereo not shown),-11.28
Cc1cc(-c2cnc(NC3CC3)nc2-c2ccc(C)o2)on1,-13.47
COCc1ccccc1C(=O)N(C)Cc1ncc(C)c(OC)c1C,-14.79
O=C(Cc1ccccc1)N1CCn2cc(Cn3cncn3)nc2C1,30.52
COc1cccc(-n2ccc3nc(N4CCCC4)ncc3c2=O)c1,7.878
O=C(O)c1ccc2c(c1)C1(CCCCC1)CN2C(=O)c1cccc(F)c1,6.626
O=C(C1CCCOC1)N1CCN(CC(F)(F)F)c2ccccc21 (stereo not shown),-2.083
Cc1ccccc1SC1CCN(C(=O)C2CNCC(=O)N2)CC1 (stereo not shown),-17.53
CC(=O)Nc1nc(C(=O)N2CCCC(n3nc(C)nc3C)C2)cs1 (stereo not shown),-7.984
Oc1ccc(C2Nc3ccccc3C3=NCCCN32)cc1 (stereo not shown),2.268

The first 2 entries again:

Result for CC(C)N(Cc1ccc(C(F)(F)F)nc1)Cc1cnn(C)c1 was 0.6742%.
Result for Cc1cnn(CC2CCCN2C(=O)c2cc(C)nc3[nH]nc(C)c23)c1 (stereo not shown) was -14.55%.